{"source": "the supplement of paper PMC5407854", "about": "“Inhibitor of ppGalNAc-T3-mediated O-glycosylation blocks cancer cell invasiveness and lowers FGF23 levels” (eLife, 2017)", "note": "The list shows a part of the results. Most entries show no effect beyond the scatter of the controls.", "data": [{"tested_on": "ppGalNAc-T3 sensor", "assay": "T3 sensor activation Q score (MG/GFP ratio z-score vs DMSO controls) (SD units); higher = more sensor activation (inhibition of ppGalNAc-T3 glycosylation)", "conditions": "HEK293 sensor cells; 10 µM; 6 h", "method": "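Cells were treated with compound at 10 uM for 6 h, then MG/GFP ratio was read by flow cytometry (10,000 cells per well, duplicate wells). Q = (R - R_neg)/SD_neg relative to DMSO vehicle controls; the signal rises when the glycosyltransferase is inhibited.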", "values": [{"smiles": "Cc1c(Cl)cccc1NC(=O)CCc1ccccc1", "T3 sensor activation Q score": -0.185}, {"smiles": "CC(C)c1ccc(CN(C)C2CCN(C)CC2)cc1", "T3 sensor activation Q score": 1.5}, {"smiles": "Cc1ccn2cc(-c3ccc(Cl)cc3)nc2c1", "T3 sensor activation Q score": 0.17}, {"smiles": "COc1ccc(-c2nnc(N)s2)cc1", "T3 sensor activation Q score": 0.21}, {"smiles": "CCCC(=O)Nc1cc2oc3ccccc3c2cc1OC", "T3 sensor activation Q score": -0.285}, {"smiles": "Cc1cccc(N2CCN(Cc3cccs3)CC2)c1C", "T3 sensor activation Q score": 0.235}, {"smiles": "Cc1nc2sc(-c3ccccc3)nn2c(=O)c1Br", "T3 sensor activation Q score": -0.065}, {"smiles": "COc1cccc(CN2CCSCC2)c1", "T3 sensor activation Q score": 0.15}, {"smiles": "CC1(c2ccccc2)CC(C)(C)N2C(=O)Cc3cccc1c32", "note": "(stereo not given)", "T3 sensor activation Q score": -0.365}, {"smiles": "Cc1ccc(NC(=O)N2CCN(C)CC2)cc1", "T3 sensor activation Q score": 0.265}, {"smiles": "COc1cccc(N2C(=O)CC(N3CCN(C)CC3)C2=O)c1", "note": "(stereo not given)", "T3 sensor activation Q score": -0.025}, {"smiles": "COc1ccccc1CC(CC(=O)O)C(=O)O", "note": "(stereo not given)", "T3 sensor activation Q score": 0.525}, {"smiles": "Cc1ccc(S(=O)(=O)N(C)C)cc1N", "T3 sensor activation Q score": -0.265}, {"smiles": "c1ccc2c(c1)nnn1c3ccccc3nc21", "T3 sensor activation Q score": -0.415}, {"smiles": "Fc1c(F)c(F)c(CSc2nc3ccccc3[nH]2)c(F)c1F", "T3 sensor activation Q score": 0.075}, {"smiles": "CC(=O)Nc1cc2nc3ccccc3nc2cc1NC(C)=O", "T3 sensor activation Q score": -0.65}, {"smiles": "CCOc1ccc(C(=O)N2CCN(Cc3ccccc3)CC2)cc1", "T3 sensor activation Q score": 1.72}, {"smiles": "COc1ccc(CN2CCCN(C)CC2)c(C)c1C", "T3 sensor activation Q score": -0.1}, {"smiles": "Cc1c(Cl)cccc1NC(=O)C1CCN(C(=O)Cc2ccccc2)CC1", "T3 sensor activation Q score": -0.36}, {"smiles": "COc1ccc(OC)c(NC2=NS(=O)(=O)c3ccccc32)c1", "T3 sensor activation Q score": 0.39}, {"smiles": "CC1(C)CC(NC(=O)N2c3ccccc3Sc3ccccc32)CC(C)(C)N1", "T3 sensor activation Q score": 0.275}, {"smiles": "Cc1cc(C)c(S(=O)(=O)Nc2ccccc2)cc1S(=O)(=O)Nc1ccccc1", "T3 sensor activation Q score": 0.175}, {"smiles": "Cc1ccc(NC2=C(NCCO)C(=O)c3ccccc3C2=O)cc1", "T3 sensor activation Q score": -0.345}, {"smiles": "CCOc1ccccc1N1CCN(Cc2cc(Br)ccc2OC)CC1", "T3 sensor activation Q score": -0.08}, {"smiles": "Cc1ccc(NCC(O)C(O)C(O)CO)cc1C", "note": "(stereo not given)", "T3 sensor activation Q score": 1.16}, {"smiles": "O=C(NCc1cccnc1)Nc1cccc(Cl)c1", "T3 sensor activation Q score": 0.135}, {"smiles": "O=C(Nc1ccccc1)Nc1cccc2cccnc12", "T3 sensor activation Q score": 0.73}, {"smiles": "COc1ccccc1C(=O)Nc1ccc2oc(-c3ccccc3C)nc2c1", "T3 sensor activation Q score": -0.78}, {"smiles": "COc1cccc(Oc2nc(N)[nH]c(=O)c2Br)c1", "T3 sensor activation Q score": -0.51}, {"smiles": "COc1cccc(N(C(C)=O)C2=C(N3CCCC3)C(=O)c3ccccc3C2=O)c1", "T3 sensor activation Q score": -0.765}, {"smiles": "CC(C(=O)O)N1C(=O)c2ccccc2C1=O", "note": "(stereo not given)", "T3 sensor activation Q score": -0.055}, {"smiles": "COc1cccc(Nc2nc(-c3ccccc3)cs2)c1", "T3 sensor activation Q score": -0.65}, {"smiles": "COc1ccccc1N1CCN(Cc2ccc(NC(C)=O)cc2)CC1", "T3 sensor activation Q score": 0.44}, {"smiles": "c1ccc(-c2ccc(CN3CCSCC3)cc2)cc1", "T3 sensor activation Q score": 0}, {"smiles": "COc1ccc(CN2CCC(N3CCCCC3)CC2)c(OC)c1C", "T3 sensor activation Q score": 1.45}, {"smiles": "COc1ccccc1CNC(=O)Cc1ccc(OC)c(OC)c1", "T3 sensor activation Q score": 0.335}, {"smiles": "O=C(NCc1ccco1)c1cccc(Cl)c1", "T3 sensor activation Q score": -0.36}, {"smiles": "O=C(Nc1cccc(Cl)c1Cl)C12CC3CC(CC(C3)C1)C2", "T3 sensor activation Q score": 0.42}, {"smiles": "Cc1ccc(NS(=O)(=O)c2ccc(F)cc2)cc1C", "T3 sensor activation Q score": 1.05}, {"smiles": "COc1ccc(OCC(=O)NCCc2ccccc2)cc1", "T3 sensor activation Q score": -0.2}]}]}
